Results taken from publication PMC9767466.
Results are given in words; binding and its absence hold for the method and conditions named. Binding seen in cells or lysates may run through a third protein. A yes stands for co-enrichment or nearness to the bait. Other partners may have been found. Where a sequence is shown, tags or fusion partners need not be part of it.

Amino acid sequences for entries named in this document (tags omitted). Residues count along the entry.
UniProt Q8C3J5: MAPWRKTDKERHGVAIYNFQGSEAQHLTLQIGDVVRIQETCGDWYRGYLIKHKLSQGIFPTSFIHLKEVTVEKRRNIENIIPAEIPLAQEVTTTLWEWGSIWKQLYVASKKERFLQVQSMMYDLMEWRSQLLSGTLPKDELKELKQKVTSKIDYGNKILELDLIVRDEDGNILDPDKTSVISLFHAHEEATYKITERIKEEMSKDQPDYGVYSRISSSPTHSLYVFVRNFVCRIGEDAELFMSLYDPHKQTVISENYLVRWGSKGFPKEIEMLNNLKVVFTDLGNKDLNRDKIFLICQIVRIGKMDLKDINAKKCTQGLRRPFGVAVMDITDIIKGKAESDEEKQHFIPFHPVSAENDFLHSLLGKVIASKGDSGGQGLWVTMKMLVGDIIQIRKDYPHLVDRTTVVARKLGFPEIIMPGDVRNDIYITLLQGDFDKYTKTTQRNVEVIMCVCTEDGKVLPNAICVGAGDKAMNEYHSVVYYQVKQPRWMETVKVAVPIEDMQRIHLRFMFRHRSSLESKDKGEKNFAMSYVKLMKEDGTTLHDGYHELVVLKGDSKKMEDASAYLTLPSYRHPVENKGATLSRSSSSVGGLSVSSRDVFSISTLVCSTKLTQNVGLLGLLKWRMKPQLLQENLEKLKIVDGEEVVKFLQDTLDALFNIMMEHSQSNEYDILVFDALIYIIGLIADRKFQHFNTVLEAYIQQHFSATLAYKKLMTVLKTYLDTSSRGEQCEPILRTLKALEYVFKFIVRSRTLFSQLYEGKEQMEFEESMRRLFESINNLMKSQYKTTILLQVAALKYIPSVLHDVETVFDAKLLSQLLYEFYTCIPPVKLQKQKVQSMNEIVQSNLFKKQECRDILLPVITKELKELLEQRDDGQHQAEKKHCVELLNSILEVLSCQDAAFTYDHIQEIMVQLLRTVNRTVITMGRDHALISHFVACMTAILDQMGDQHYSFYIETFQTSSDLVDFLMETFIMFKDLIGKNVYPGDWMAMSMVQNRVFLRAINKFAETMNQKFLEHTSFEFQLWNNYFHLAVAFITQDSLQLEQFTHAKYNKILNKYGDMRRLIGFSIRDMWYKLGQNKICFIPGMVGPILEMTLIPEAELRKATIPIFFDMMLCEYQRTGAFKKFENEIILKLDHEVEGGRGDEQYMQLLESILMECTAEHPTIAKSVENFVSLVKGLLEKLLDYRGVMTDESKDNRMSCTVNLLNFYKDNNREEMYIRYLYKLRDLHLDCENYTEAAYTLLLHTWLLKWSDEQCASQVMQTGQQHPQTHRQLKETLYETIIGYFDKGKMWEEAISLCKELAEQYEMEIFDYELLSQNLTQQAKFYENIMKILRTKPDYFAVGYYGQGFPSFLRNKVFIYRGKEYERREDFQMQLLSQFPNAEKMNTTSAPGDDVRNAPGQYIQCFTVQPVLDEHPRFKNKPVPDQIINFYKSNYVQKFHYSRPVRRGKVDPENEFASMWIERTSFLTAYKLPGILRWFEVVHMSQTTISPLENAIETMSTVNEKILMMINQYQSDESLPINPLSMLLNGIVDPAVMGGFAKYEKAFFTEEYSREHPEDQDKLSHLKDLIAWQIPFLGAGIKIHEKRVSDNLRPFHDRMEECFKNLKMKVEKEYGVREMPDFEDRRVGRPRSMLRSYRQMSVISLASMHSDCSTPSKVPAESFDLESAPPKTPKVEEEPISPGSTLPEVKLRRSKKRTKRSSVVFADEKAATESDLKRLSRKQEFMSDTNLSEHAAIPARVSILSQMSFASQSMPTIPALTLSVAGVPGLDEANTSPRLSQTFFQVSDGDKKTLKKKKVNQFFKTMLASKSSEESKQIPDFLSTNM
UniProt Q8BPU7: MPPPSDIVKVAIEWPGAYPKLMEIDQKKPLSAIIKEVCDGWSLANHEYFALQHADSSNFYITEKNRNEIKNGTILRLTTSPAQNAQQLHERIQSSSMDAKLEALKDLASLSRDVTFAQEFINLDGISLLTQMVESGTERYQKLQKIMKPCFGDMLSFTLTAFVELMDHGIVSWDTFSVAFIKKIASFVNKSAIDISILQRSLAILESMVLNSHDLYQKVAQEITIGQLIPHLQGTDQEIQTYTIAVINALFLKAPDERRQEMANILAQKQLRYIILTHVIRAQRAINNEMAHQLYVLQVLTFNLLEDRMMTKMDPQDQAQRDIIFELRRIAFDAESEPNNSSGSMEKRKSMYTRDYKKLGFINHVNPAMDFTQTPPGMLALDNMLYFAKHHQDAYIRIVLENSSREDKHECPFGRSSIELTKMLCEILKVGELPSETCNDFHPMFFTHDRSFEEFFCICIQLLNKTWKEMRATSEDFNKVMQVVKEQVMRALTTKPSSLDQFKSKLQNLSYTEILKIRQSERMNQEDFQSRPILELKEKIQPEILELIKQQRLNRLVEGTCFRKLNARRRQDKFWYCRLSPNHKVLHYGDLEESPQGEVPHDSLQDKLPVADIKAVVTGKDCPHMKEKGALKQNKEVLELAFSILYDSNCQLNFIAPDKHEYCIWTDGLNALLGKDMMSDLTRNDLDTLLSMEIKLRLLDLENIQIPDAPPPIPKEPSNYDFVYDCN
UniProt Q9Z1M0: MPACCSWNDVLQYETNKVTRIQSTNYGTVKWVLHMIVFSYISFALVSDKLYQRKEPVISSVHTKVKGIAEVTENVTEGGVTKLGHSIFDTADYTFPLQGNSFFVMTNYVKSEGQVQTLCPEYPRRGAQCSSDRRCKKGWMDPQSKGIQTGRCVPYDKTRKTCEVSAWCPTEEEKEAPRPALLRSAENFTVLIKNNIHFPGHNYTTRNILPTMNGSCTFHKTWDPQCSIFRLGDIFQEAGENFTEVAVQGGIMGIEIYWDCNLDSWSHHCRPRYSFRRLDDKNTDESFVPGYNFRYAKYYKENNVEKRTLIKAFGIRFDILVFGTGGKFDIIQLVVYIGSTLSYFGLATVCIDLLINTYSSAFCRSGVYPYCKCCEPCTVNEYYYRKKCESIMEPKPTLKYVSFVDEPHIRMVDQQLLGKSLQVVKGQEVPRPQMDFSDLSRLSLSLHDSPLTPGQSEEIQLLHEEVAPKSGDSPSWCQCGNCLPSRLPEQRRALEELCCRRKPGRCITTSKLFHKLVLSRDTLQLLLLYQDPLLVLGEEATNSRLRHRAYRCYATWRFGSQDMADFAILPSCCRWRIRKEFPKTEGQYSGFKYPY
UniProt Q9DBG6, residues 23-631: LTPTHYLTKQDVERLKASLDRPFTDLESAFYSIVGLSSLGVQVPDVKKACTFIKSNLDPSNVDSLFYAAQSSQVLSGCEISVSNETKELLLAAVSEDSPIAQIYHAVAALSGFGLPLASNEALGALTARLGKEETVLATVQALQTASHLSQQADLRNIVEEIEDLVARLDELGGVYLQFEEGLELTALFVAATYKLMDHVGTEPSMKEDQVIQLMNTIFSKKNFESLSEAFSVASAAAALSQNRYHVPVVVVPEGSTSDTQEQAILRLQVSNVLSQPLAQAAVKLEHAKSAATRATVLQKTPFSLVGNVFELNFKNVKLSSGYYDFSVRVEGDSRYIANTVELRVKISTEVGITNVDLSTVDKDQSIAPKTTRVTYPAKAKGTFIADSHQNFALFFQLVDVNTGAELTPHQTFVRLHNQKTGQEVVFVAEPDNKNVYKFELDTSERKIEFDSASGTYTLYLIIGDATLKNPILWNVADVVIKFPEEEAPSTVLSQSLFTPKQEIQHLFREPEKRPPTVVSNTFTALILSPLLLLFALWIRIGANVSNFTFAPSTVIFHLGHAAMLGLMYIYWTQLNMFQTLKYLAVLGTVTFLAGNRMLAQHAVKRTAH

Target: T1, N-terminal FLAG-tagged EROS in RAW 264.7 macrophages (UniProt Q3TYS2)
T1 sequence: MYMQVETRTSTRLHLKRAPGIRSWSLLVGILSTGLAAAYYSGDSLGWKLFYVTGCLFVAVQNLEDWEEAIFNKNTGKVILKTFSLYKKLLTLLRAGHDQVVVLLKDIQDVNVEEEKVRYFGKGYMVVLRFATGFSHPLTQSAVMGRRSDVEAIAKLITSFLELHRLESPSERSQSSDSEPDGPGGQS
Assay: affinity purification with mass spectrometry; FLAG affinity purification from RAW 264.7 macrophages overexpressing FLAG-tagged EROS against untagged control cells, four biological replicates; elution with 3xFLAG peptide; LC-MS/MS; SAINTexpress, SP > 0.9 for high-confidence interactors

Substance: Dock2, endogenous in RAW 264.7 macrophages (from UniProt Q8C3J5 1-1828)
- binding: binds

Substance: Elmo1, endogenous in RAW 264.7 macrophages (from UniProt Q8BPU7 1-727)
- binding: binds

Substance: P2X7, endogenous in RAW 264.7 macrophages (from UniProt Q9Z1M0 1-595) (receptor)
- binding: binds

Substance: ribophorin 2 (RPN2), endogenous in RAW 264.7 macrophages (from UniProt Q9DBG6 23-631)
- binding: binds
